Experimental data reported in patent US20130017251A1 (J DAVID GLADSTONE INSTITUTES, published 2013).
No constants are given. Whether binding was seen depends on the method and setting. Some entries that bind do so weakly or less than the wild type.

Chains of the proteins cited; added tags and fusions are not shown. Residues count along the entry.
UniProt P02649, residues 19-317: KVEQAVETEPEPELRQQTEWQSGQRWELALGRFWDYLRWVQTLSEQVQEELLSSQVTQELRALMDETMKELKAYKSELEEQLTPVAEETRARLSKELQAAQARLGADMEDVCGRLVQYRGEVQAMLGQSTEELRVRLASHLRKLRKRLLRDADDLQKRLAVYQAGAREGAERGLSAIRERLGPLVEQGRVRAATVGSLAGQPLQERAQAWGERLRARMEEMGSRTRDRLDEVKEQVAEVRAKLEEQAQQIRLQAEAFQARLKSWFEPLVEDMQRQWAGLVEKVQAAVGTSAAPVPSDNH

Tests used:
[1] = target: apoE in human brain sections (AD cases and controls) (human) (UniProt P02649); test: immunofluorescence staining of human brain sections
[2] = target: apoE in human brain sections (AD cases and controls) (human) (UniProt P02649); test: double immunofluorescence staining of human AD brain sections

B1: apoE-specific monoclonal antibody 3H1 (antibody, V domains shown)
VH: EVQLVESGGGLVKPGGSLKLSCAASGFTFSSYAMSWVRQTPEKRLEWVATISSGGSYTYYPDSVKGRFTISRDNAKNTLYLQMSSLRSEDTAMYYCARQFYYYGGSYDYFDYWGQGTTLTVS
VL: DIVLTQSPATLSVTPGDSVSLACRASQSISNNLHWYQQKSHESPRLLIKYAYQSISGIPSRFSGSGSGTDFTLSINSVETEDFGMYFCQQSNSWPLTFGVGTKLEIKR
notes: Mouse monoclonal IgG (detected with anti-mouse IgG; used as purified 3H1 IgG); also called 3H1 IgG; purified 3H1 IgG
**Q.** Which results are given for B1?
**A.** binding [1]: binds; binding [2]: binds
